The values below come from paper PMC6925144, “A prospective compound screening contest identified broader inhibitors for Sirtuin 1” (Scientific Reports, 2019).

Amino acid sequences for entries named in this document (tags omitted). Residues count along the entry.
UniProt Q96EB6, 2-747 limits assumed: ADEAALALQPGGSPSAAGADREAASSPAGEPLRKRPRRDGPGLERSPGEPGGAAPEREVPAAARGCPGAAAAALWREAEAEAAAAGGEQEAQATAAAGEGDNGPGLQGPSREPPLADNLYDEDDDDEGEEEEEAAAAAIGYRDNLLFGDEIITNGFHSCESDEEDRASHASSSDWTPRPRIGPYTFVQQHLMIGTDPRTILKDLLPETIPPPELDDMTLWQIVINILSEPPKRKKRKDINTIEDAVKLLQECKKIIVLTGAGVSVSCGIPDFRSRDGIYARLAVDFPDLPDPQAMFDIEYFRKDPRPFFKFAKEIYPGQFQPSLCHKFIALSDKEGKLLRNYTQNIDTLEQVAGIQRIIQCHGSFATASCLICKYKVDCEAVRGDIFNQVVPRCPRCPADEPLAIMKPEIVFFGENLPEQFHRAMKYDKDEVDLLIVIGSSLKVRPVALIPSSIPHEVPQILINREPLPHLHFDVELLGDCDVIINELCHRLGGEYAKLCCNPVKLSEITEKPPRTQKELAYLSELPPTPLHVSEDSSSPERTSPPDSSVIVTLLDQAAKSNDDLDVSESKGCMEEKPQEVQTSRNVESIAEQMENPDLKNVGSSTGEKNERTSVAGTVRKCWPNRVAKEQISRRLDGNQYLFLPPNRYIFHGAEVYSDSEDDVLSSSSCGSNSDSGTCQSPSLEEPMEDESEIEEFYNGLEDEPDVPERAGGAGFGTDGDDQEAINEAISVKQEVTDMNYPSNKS

The structures appear in SMILES notation. The full ranking holds about 3,200 compounds; the median of “TSA(without NAD+) / Primary screening (TSA) / delta Tm (K)” is about -0.07, and the highest 2% start at about 0.37. This is one part of the list.

The target of this assay is NAD-dependent deacetylase Sirtuin 1 (human, UniProt Q96EB6). The assay is described as follows: primary screen, delta tm. Also on record: single well (n = 1). As to conditions: 10 µM. In short, it runs like this: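 Thermal shift of Sirtuin 1 measured without NAD+, compound at 10 µM (n = 1); value is ΔTm, with hits defined as ΔTm > 0.45 K or < −1.5 K. Hits retested at 5, 10, 20 µM (n = 4) and counterscreened on bovine carbonic anhydrase and ABL1 SH2 domain.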
`CCc1nnc(NC(=O)Nc2ccc(O)cc2C)s1`: the “TSA(without NAD+) / Primary screening (TSA) / delta Tm (K)” value is -0.15 K. Consider `CC(C)[C@H](NC(=O)Cc1cccc2ccccc12)C(=O)OCC(=O)NC12CC3CC(CC(C3)C1)C2`, for which the “TSA(without NAD+) / Primary screening (TSA) / delta Tm (K)” value is on record as -0.03 K. For the compound `CNC(=O)c1ccc2[nH]c3c(c2c1)CCCC3`, the “TSA(without NAD+) / Primary screening (TSA) / delta Tm (K)” value is listed as -0.18 K. Turning to `CC(OC(=O)Cc1coc2cc(O)ccc12)C(=O)Nc1ccc(C(N)=O)cc1` (stereo not shown), the “TSA(without NAD+) / Primary screening (TSA) / delta Tm (K)” value is reported as -0.41 K.

On to `Cc1ccc(C(=O)NNC(=O)c2ccc(S(=O)(=O)N3CCCC3)cc2)cc1`, for which the “TSA(without NAD+) / Primary screening (TSA) / delta Tm (K)” value is -0.13 K. Turning to `CS/C(=N/S(=O)(=O)c1cccs1)NS(=O)(=O)c1ccc(N)cc1`, the “TSA(without NAD+) / Primary screening (TSA) / delta Tm (K)” value is -0.11 K. Regarding `N#Cc1ccc(CN2CCC(CCc3ccc(O)cc3)CC2)c(F)c1`, the “TSA(without NAD+) / Primary screening (TSA) / delta Tm (K)” value is given as -0.11 K. The figure for `CC(OC(=O)c1c2ccccc2cc2ccccc12)C(=O)c1ccccc1` (stereo not shown) is -0.14 K.

In the case of `O=C(CCc1nc2ccccc2s1)Nc1ccc(N2CCN(Cc3ccccc3)CC2)cc1`, the “TSA(without NAD+) / Primary screening (TSA) / delta Tm (K)” value came out at 0.17 K. In the case of `NC(=O)c1ccc(S(=O)(=O)NNC(=O)c2cc3c(s2)CCCCC3)cc1`, the “TSA(without NAD+) / Primary screening (TSA) / delta Tm (K)” value is listed as -0.03 K. For the compound `CN(c1ccccc1)S(=O)(=O)c1cccc(NC(=O)CCc2c[nH]c3ccccc23)c1`, the “TSA(without NAD+) / Primary screening (TSA) / delta Tm (K)” value was found to be 0.38 K. For `O=C(Nc1cccc(S(=O)(=O)NCc2ccco2)c1)c1ccc(COc2ccccc2)o1`, the “TSA(without NAD+) / Primary screening (TSA) / delta Tm (K)” value is listed as -0.01 K. Consider `COc1ccc(CCNC(=O)c2ccccc2NS(=O)(=O)CC23CCC(CC2=O)C3(C)C)cc1` (stereo not shown), for which the “TSA(without NAD+) / Primary screening (TSA) / delta Tm (K)” value was found to be 0.25 K.

For the compound `O=C(NCc1ccccc1)/C(=C/c1ccc(OCc2ccccc2)cc1)c1nc2ccccc2[nH]1`, the “TSA(without NAD+) / Primary screening (TSA) / delta Tm (K)” value is on record as 0.12 K. For the compound `CC(Sc1nc(N)nc(N)n1)C(=O)N1CCOCC1` (stereo not shown), the “TSA(without NAD+) / Primary screening (TSA) / delta Tm (K)” value is -0.27 K. Turning to `CCN(CC)C(CNC(=O)CNC(=O)c1ccoc1C)c1ccco1` (stereo not shown), the “TSA(without NAD+) / Primary screening (TSA) / delta Tm (K)” value worked out at 0.02 K.

Turning to `CCN(CC(=O)OC(C)C(=O)NC(N)=O)Cc1ccc(Cl)cc1` (stereo not shown), the “TSA(without NAD+) / Primary screening (TSA) / delta Tm (K)” value is reported as -0.03 K.

For the compound `CCOc1ccc2oc(C(=O)NN3C(C)CCCC3C)c(C)c2c1` (stereo not shown), the “TSA(without NAD+) / Primary screening (TSA) / delta Tm (K)” value is -0.08 K. `COc1ccc(C(=O)OCC(=O)NC(Cc2ccccc2)C(C)=O)cc1S(=O)(=O)N1CCCC1` (stereo not shown): the “TSA(without NAD+) / Primary screening (TSA) / delta Tm (K)” value stood at 0.22 K.

As for `O=C(/C=C/c1ccc(S(=O)(=O)N2CCc3ccccc32)cc1)Nc1cccc(S(=O)(=O)NCc2ccco2)c1`, the “TSA(without NAD+) / Primary screening (TSA) / delta Tm (K)” value is 0.36 K. `NC(=O)C1CCCN1Cc1nc2cc(Br)cnc2[nH]1` (stereo not shown): the “TSA(without NAD+) / Primary screening (TSA) / delta Tm (K)” value is given as -0.03 K. On to `Cc1ccc2nc(CSc3nnc(NCc4ccco4)s3)cc(=O)n2c1`, for which the “TSA(without NAD+) / Primary screening (TSA) / delta Tm (K)” value is 0.12 K. Consider `CN(C)c1ccc(C=C2C(=O)NC(=S)NC2=O)cc1`, for which the “TSA(without NAD+) / Primary screening (TSA) / delta Tm (K)” value is -0.24 K. As for `COC(=O)C(CNC(=O)c1ccc2nccn2c1)c1ccc(F)cc1` (stereo not shown), the figure is 0.08 K; as for `CC1CC(C)(C)CC2(C1)NC(=O)N(CC(=O)Nc1ccc(C(N)=O)cc1)C2=O` (stereo not shown), 0.02 K; as for `CN(C(=O)CSc1nc(-c2cccs2)cc(C(F)(F)F)c1C#N)C1CCS(=O)(=O)C1` (stereo not shown), -0.32 K. The figure for `O=C1CCCN1c1cccc(NS(=O)(=O)c2cccc(F)c2)c1` is -0.02 K; for `O=C(CCc1ccccc1F)NCc1cccc(NC(=O)c2ccncc2)c1` it is -0.12 K; for `Cc1ccc(N(C)S(=O)(=O)c2cccc(C(=O)NNC(=O)CC34CC5CC(CC(C5)C3)C4)c2)cc1` it is 0.45 K.

Take `Cc1cc(CC(=O)N2CCC3(CCC3)C2)n[nH]1`: the “TSA(without NAD+) / Primary screening (TSA) / delta Tm (K)” value is listed as -0.04 K.

For the compound `CCCCCCC(C)NN` (stereo not shown), the “TSA(without NAD+) / Primary screening (TSA) / delta Tm (K)” value was -0.15 K. Take `NC(=O)c1ccc(NC(=O)NCc2ccnc3ccccc23)cc1Cl`: the “TSA(without NAD+) / Primary screening (TSA) / delta Tm (K)” value was -0.07 K. On to `CON(C)C(=O)c1[nH]c2ccc(C)cc2c1C`, for which the “TSA(without NAD+) / Primary screening (TSA) / delta Tm (K)” value is listed as -0.53 K. With `O=C1/C(=C/c2cc3c(cc2Br)OCO3)Oc2cc(O)ccc21`, the “TSA(without NAD+) / Primary screening (TSA) / delta Tm (K)” value is reported as 0.16 K. Turning to `O=C(NCc1ccc(-n2cccn2)nc1)c1ccc(/C=C/c2ccc3ccccc3n2)cc1`, the “TSA(without NAD+) / Primary screening (TSA) / delta Tm (K)” value was -0.12 K. Take `Cc1c2c(nc3c1oc1ccccc13)CCCCCCCCCC2`: the “TSA(without NAD+) / Primary screening (TSA) / delta Tm (K)” value worked out at 0.18 K. Take `CCCN(C(=O)c1ccc(Oc2ccccc2)cc1)C1CCS(=O)(=O)C1` (stereo not shown): the “TSA(without NAD+) / Primary screening (TSA) / delta Tm (K)” value is -0.07 K. For the compound `O=C(NCc1ccc(N2CCCC2)cc1)c1csc([N+](=O)[O-])c1`, the “TSA(without NAD+) / Primary screening (TSA) / delta Tm (K)” value was -0.03 K.

Regarding `CC(c1ccco1)N(C)CC(=O)N1CCC(C(N)=O)CC1` (stereo not shown), the “TSA(without NAD+) / Primary screening (TSA) / delta Tm (K)” value is given as -0.12 K.

In the case of `Cc1ccc(Cl)cc1NC(=O)CC#N`, the “TSA(without NAD+) / Primary screening (TSA) / delta Tm (K)” value is recorded as 0.07 K. For the compound `CCc1ccc(C(Nc2ccc3nnnn3n2)c2cccc(F)c2)cc1` (stereo not shown), the “TSA(without NAD+) / Primary screening (TSA) / delta Tm (K)” value is recorded as -0.07 K.

In the case of `Cn1cnnc1Sc1ccc(Cl)cc1NC(=O)c1cnc2ccccc2n1`, the “TSA(without NAD+) / Primary screening (TSA) / delta Tm (K)” value is -0.03 K. `COC(=O)c1cn(CC(=O)NCCc2cccs2)c2ccccc12`: the “TSA(without NAD+) / Primary screening (TSA) / delta Tm (K)” value is 0.09 K. As for `NC(=O)c1c(NC(=O)CSc2nnc(N3CCCC3)n2CC2CCCO2)sc2c1CCCC2` (stereo not shown), the figure is -0.03 K; as for `CN(c1ccc(C(N)=O)cc1)S(=O)(=O)c1ccccc1`, -0.31 K; as for `CC(=O)Nc1ccc(NCc2nnc3n(C)c(=O)c4ccccc4n23)cc1Cl`, 0.08 K. Turning to `Cc1ccc(C(=O)NC(C)c2nc(C)c(C(=O)O)s2)s1` (stereo not shown), the “TSA(without NAD+) / Primary screening (TSA) / delta Tm (K)” value is -0.12 K. Regarding `CCOc1ccc(C(=O)NCCc2ccc(S(N)(=O)=O)cc2)cc1`, the “TSA(without NAD+) / Primary screening (TSA) / delta Tm (K)” value is recorded as 0.09 K. Take `Cc1cnn(CCNCc2coc(-c3ccccc3Cl)n2)c1`: the “TSA(without NAD+) / Primary screening (TSA) / delta Tm (K)” value was -0.12 K.

With `O=C(COc1ccccc1-c1ccccc1)Nc1cccc(S(=O)(=O)NCc2ccco2)c1`, the “TSA(without NAD+) / Primary screening (TSA) / delta Tm (K)” value was determined as 0.13 K.

Turning to `Cc1ccc(NC(=O)C(OC(=O)C23CC4CC(CC(O)(C4)C2)C3)c2ccccc2)c([N+](=O)[O-])c1` (stereo not shown), the “TSA(without NAD+) / Primary screening (TSA) / delta Tm (K)” value was found to be 0.07 K. For `O=C(Nc1cccc(S(=O)(=O)NCc2ccco2)c1)c1ccccc1OCc1ccccc1Cl`, the “TSA(without NAD+) / Primary screening (TSA) / delta Tm (K)” value is on record as 0.06 K.

With `CCS(=O)(=O)Nc1ccc(C(C)NCc2cnn(C)c2C)cc1` (stereo not shown), the “TSA(without NAD+) / Primary screening (TSA) / delta Tm (K)” value is reported as -0.14 K.

With `CC(CN1CCOCC1)NC(=O)C(Cc1ccccc1)n1cnnn1` (stereo not shown), the “TSA(without NAD+) / Primary screening (TSA) / delta Tm (K)” value was -0.23 K. Regarding `CS(=O)(=O)c1ccc(NC(=O)c2ccccc2SCC(=O)NC23CC4CC(CC(C4)C2)C3)cc1`, the “TSA(without NAD+) / Primary screening (TSA) / delta Tm (K)” value is on record as -0.03 K.

For `CCOc1ccc(Oc2ccc(NC(=O)CNC(=O)CC34CC5CC(CC(C5)C3)C4)cc2)cc1`, the “TSA(without NAD+) / Primary screening (TSA) / delta Tm (K)” value was 0.38 K. For `O=c1c2ccccc2ncn1CC(O)c1ccccc1Cl` (stereo not shown), the “TSA(without NAD+) / Primary screening (TSA) / delta Tm (K)” value is on record as -0.17 K. Regarding `Cc1nc(-c2ccc(CNC(=O)c3cccc([N+](=O)[O-])c3)cc2)cs1`, the “TSA(without NAD+) / Primary screening (TSA) / delta Tm (K)” value worked out at 0.09 K.
